{
  "source": "patent US9643960B2",
  "about": "“Procaspase activating compounds” (The Board of Trustees of the University of Illinois, priority 2009, dated 2017)",
  "key": {"[1]": {"test_system": "primary cancerous cells from colon tumors", "test": "Cell death in cells from freshly resected colon tumors", "type": "cell-based, human", "settings": "primary colon tumors from 23 people"}, "[2]": {"test_system": "NCI-H226 (lung cancer) cell line", "test": "NCI-H226 mouse models of cancer", "type": "in vivo"}},
  "note": "For at least one compound, name, drawing or mass did not settle the structure.",
  "data": [
    {"compound": "C=CCc1cccc(/C=N/NC(=O)CN2CCN(Cc3ccccc3)CC2)c1O", "note": "[PAC-1]", "values": [
      {"measurement": "cell death", "setting": "[1]", "value": "induces death in cells isolated from freshly resected colon tumors"},
      {"measurement": "tumor in the lungs", "setting": "[2]; mice injected with NCI-H226, 100 mg kg-1 oral gavage", "value": "almost no visible tumor"},
      {"measurement": "tumor growth in xenograft", "setting": "[2]; subcutaneous NCI-H226, oral gavage once a day on days 1-21", "value": "retardation of tumor growth"}
    ]}
  ]
}
